# According to PubChem BioAssay AID540276 (National Center for Advancing Translational Sciences (NCATS), 2011):
# About 5,400 (1.8%) of roughly 300,000 compounds were called active. Inconclusive results, whose numbers are uncertain, are shown with a selection of clear calls. The call rests on the fitted dose curve; tested in HEK293 cells. Potencies of inconclusive entries are doubtful fits and often do not repeat.
# Assay: qHTS for inhibitors of binding or entry into cells for Marburg Virus
# Details: Marburg virus pseudotyped entry inhibition, cell reporter; activity change, negative = inhibition: at 37.8 µM (top of the series) unless noted
# On the % scale 0 is the no-effect control and ±100 the full control effect; potency means the concentration at half of the fitted maximal effect.
Structure (SMILES),Potency,"activity change, negative = inhibition"
Cc1ccc(C(=O)OCC(=O)N2CC(C)CC(C)C2)cc1S(=O)(=O)N1CCOCC1 (stereo not given),"inconclusive: 0.891 µM [inhibitor, single point]",–
COCCn1c(C)cc(C(=O)CSc2nc3ccccc3c(=O)[nH]2)c1C,"inconclusive: 32.6 µM [inhibitor, single point]",–
CCOC(=O)c1c(C)n(C)c2ccc(O)c(CN(CC)CC)c12,"inconclusive: 9.2 µM [inhibitor, partial curve]",–
CCOC(=O)C1(Cc2cccc(F)c2)CCN(C(=O)c2cnc(C)cn2)CC1,–,inactive: -1.94% [at 46.1 µM]
CC1CC(C)CN(C(=O)CCNC(=O)c2ccccc2Cl)C1 (stereo not given),–,inactive: 11.9% [at 46.1 µM]
NCc1cc(=O)[nH]o1,"inconclusive: 20 µM [inhibitor, single point]",–
O=C(CSc1nc2ccccc2[nH]1)N1CCN(C(=O)c2ccco2)CC1,"inconclusive: 0.316 µM [activator, partial curve, poor fit]",–
CC1=C(C(=O)Nc2ccc(Cl)cc2)C(c2ccccc2)n2ncc(C(=O)Nc3ccccc3)c2N1 (stereo not given),"inconclusive: 0.562 µM [inhibitor, full curve, poor fit]",–
Cc1cccn2c(=O)c3cc(C#N)c(=O)n(-c4nnc(SCc5ccc(Cl)cc5)s4)c3nc12,"inconclusive: 7.08 µM [inhibitor, full curve, poor fit]",–
COC(=O)COc1ccc(S(=O)(=O)Nc2ccccc2SC)cc1,"inconclusive: 3.26 µM [inhibitor, single point]",–
O=C(CCN1CCCCC1)NNC(=S)NC(=O)c1ccc(Br)cc1,–,inactive: 9.39% [at 46.1 µM]
O=c1c(-c2ccccc2)c[nH]n1-c1cccc([N+](=O)[O-])c1,"inconclusive: 29.1 µM [inhibitor, single point]",–
Cc1cc(/C=N/N2CCN(C)CC2)c(C)n1-c1ccc(Cl)cc1,"inconclusive: 35.5 µM [inhibitor, single point]",–
Cc1oc(-c2ccccc2F)nc1CN1CCC(C(=O)NCc2cccs2)CC1,"inconclusive: 1.3 µM [activator, full curve, poor fit]",–
CC(C)(C)C(=O)Nc1nc(-c2ccccc2)ns1,"inconclusive: 0.58 µM [activator, partial curve]",–
COc1cccc(C(=O)N2c3cc(C)ccc3OCC2C(C)(C)C)c1 (stereo not given),"inconclusive: 1.26 µM [inhibitor, full curve, poor fit]",–
O=C(N/N=C/c1ccc2c(c1)OCO2)c1ccc(NC(=O)c2ccc(F)cc2)cc1,–,inactive: -13.3% [at 46.1 µM]
Cc1ccsc1/C=N/NC(=O)Nc1ccccc1,"inconclusive: 0.562 µM [activator, full curve, poor fit]",–
COc1ccc(N2CCN(CC(O)COC(c3ccccc3)c3ccccc3)CC2)cc1 (stereo not given),"inconclusive: 22.4 µM [inhibitor, partial curve, poor fit]",–
Clc1ccc(CN(CC2CCCO2)C(c2cccs2)c2nnnn2C2CCCC2)cc1 (stereo not given),"inconclusive: 1.83 µM [inhibitor, partial curve, poor fit]",–

Structure (SMILES),Potency,"activity change, negative = inhibition"
Cc1cccc(C)c1NC(=O)CS(=O)(=O)c1nc(-c2ccc(Cl)cc2)cn1-c1ccccc1,"inconclusive: 3.55 µM [activator, single point]",–
CC(CC(=O)N(CCC1=CCCCC1)c1c(N)n(Cc2ccccc2)c(=O)[nH]c1=O)c1ccccc1 (stereo not given),"inconclusive: 7.94 µM [inhibitor, partial curve, poor fit]",–
CC(=O)N1CCc2cc(S(=O)(=O)NC(CC(C)C)C(=O)Nc3cc(C)cc(C)c3)ccc21 (stereo not given),"inconclusive: 10 µM [inhibitor, single point]",–
Cc1ccc(NC(=O)/C=C/c2ccc([N+](=O)[O-])s2)c(C)c1,"inconclusive: 7.94 µM [inhibitor, partial curve, poor fit]",–
Cn1nc(-c2ccccc2F)c2cc(C(=O)Nc3ccc4c(c3)OCCO4)sc21,"inconclusive: 7.08 µM [inhibitor, partial curve]",–
COCCNc1nc(N)c([N+](=O)[O-])c(NCc2ccccc2)n1,"inconclusive: 5.62 µM [inhibitor, single point]",–
Cc1ccccc1NC(=O)C1CC(Cl)=CCC1C(=O)O (stereo not given),–,inactive: 8.44%
CC(C)(C)NC(=O)COC(=O)c1ccccc1Nc1ccc(SC(F)F)cc1,"inconclusive: 29.1 µM [inhibitor, single point]",–
Fc1ccc(C2=Nn3c(nnc3-c3n[nH]c4c3CCC4)SC2)cc1,"inconclusive: 35.5 µM [inhibitor, single point]",–
CCOC(=O)c1c(-c2ccc(C)cc2)csc1NC(=O)CCN1CC(C)OC(C)C1 (stereo not given),"inconclusive: 35.5 µM [inhibitor, single point]",–
COC(=O)c1ccc2nc(-c3ccc(S(C)(=O)=O)cc3)cn2c1,"inconclusive: 2 µM [activator, partial curve, poor fit]",–
Cc1cc(C)c2nc(Cl)c(CN(Cc3ccco3)C(=O)Nc3ccccc3C)cc2c1,"inconclusive: 2.91 µM [inhibitor, full curve]",–
Cn1nc(C(C)(C)C)c([N+](=O)[O-])c1C(=O)NCCO,–,inactive: 1.47%
CCCOc1ccc(CNC(=S)Nc2ccccc2)cc1Cl,"inconclusive: 11.2 µM [inhibitor, single point]",–
O=C(NCCSc1ccccc1)c1cccnc1,"inconclusive: 18.3 µM [activator, partial curve, poor fit]",–
Cc1ccccc1NC(=S)NC(NC(=O)C(C)(C)C)C(Cl)(Cl)Cl (stereo not given),"inconclusive: 0.0082 µM [inhibitor, full curve, poor fit]",–
Cc1occc1C(=O)N1CCN(c2ccccc2)CC1,"inconclusive: 4.61 µM [activator, single point]",–
CSc1ccc(CN2C(=O)NC3(CCCCCCC3)C2=O)cc1,"inconclusive: 29.1 µM [inhibitor, single point]",–
CC(C)Oc1cccc(C(=O)C2CCCN(Cc3ccc4nonc4c3)C2)c1 (stereo not given),"inconclusive: 35.5 µM [inhibitor, single point]",–
O=C(CCc1nc2ccccc2c(=O)[nH]1)NCCN1C(=O)S/C(=C\c2ccc(Cl)cc2Cl)C1=O,"inconclusive: 8.91 µM [inhibitor, single point]",–
